For one substance, binding results are on record in PMC8053111, “MKRN3-mediated ubiquitination of Poly(A)-binding proteins modulates the stability and translation of GNRH1 mRNA in mammalian puberty” (Nucleic Acids Research, 2021).

The test deals with T1, recombinant Gst-tagged MKRN3 (human) (UniProt Q13064).
T1 sequence: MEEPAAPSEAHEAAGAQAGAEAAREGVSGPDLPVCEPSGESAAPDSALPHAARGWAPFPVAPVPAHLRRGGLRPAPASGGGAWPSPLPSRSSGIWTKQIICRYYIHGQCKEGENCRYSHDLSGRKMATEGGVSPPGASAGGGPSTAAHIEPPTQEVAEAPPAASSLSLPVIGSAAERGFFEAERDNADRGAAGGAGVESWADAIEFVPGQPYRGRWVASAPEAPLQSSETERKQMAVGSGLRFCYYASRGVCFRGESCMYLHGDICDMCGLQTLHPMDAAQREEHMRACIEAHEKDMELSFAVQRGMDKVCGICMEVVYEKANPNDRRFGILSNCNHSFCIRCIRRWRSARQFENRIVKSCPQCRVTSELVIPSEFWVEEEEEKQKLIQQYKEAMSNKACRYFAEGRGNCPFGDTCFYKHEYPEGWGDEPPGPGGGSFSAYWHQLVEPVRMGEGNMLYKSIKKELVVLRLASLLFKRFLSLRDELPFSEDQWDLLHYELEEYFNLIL
In words: pull-down; GST pull-down: 20 μg purified Gst-MKRN or MKRN3 truncation, 20 μg PABP-His6 or truncation and Glutathione Sepharose 4B, 4°C overnight in 500 μl of 20 mM Tris-Cl, 100 mM NaCl, 5 mM MgCl2, 1 mM EDTA, 1 mM DTT, 0.5% NP-40, 10 μg/ml BSA, pH 7.5; five washes; Coomassie staining and anti-His immunoblot; both purified.

No constants are given. Whether binding was seen depends on the method and setting. A result given as binding can be weak or reduced; the word gives no strength. Tags and fused reporters may be left off the sequences shown.

As to “C-terminal region of PABPC1 (His6-tagged fragment) (human) (domain or fragment)”, the binding result is “binds”.
